Measurements: patent publication US20050074879A1, “Antisense oligonucleotide modulation of STAT3 expression” (priority 2000, published 2005)
Some entries share one result that the patent states for a list of compounds. Oligonucleotides are written 5' to 3', each unit as a sugar letter and its base; * is a phosphorothioate linkage, no mark a phosphodiester; rarer units and linkages stand in square brackets, end groups in braces. Plain capitals give the bases only. e = 2'-O-(2-methoxyethyl) (MOE); [5mC] = 5-methylcytosine; d = 2'-deoxy (DNA)

Test system: Human STAT3 mRNA
Assay: Inhibition of human STAT3 mRNA levels in A549 cells, 75 nM, real-time PCR (Table 13)
Assay type: cell-based
Conditions: relative to untreated control cells
Experimental: Oligonucleotide activity is assayed by quantitation of STAT3 mRNA levels by real-time PCR (RT-PCR) using the ABI PRISMS 7700 Sequence Detection System (PE-Applied Biosystems, Foster City, Calif.) according to manufacturer's instructions. This is a closed-tube, non-gel-based, fluorescence detection system which allows high-throughput quantitation of polymerase chain reaction (PCR) products in real-time. As opposed to standard PCR, in which amplification products are quantitated after the PCR is completed, products in RT-PCR are quantitated as they accumulate. This is accomplished by including in the PCR reaction an oligonucleotide probe that anneals specifically between the forward and reverse PCR primers, and contains two fluorescent dyes. A reporter dye (e.g., JOE or FAM, PE-Applied Biosystems, Foster City, Calif.) is attached to the 5′ end of the probe and a quencher dye (e.g., TAMRA, PE-Applied Biosystems, Foster City, Calif.) is attached to the 3′ end of the probe. When the probe and dyes are intact, reporter dye emission is quenched by the proximity of the 3′ quencher dye. During amplification, annealing of the probe to the target sequence creates a substrate that can be cleaved by the 5′-exonuclease activity of Taq polymerase. […] With each cycle, additional reporter dye molecules are cleaved from their respective probes, and the fluorescence intensity is monitored at regular (six-second) intervals by laser optics built into the ABI PRISM™ 7700 Sequence Detection System. In each assay, a series of parallel reactions containing serial dilutions of mRNA from untreated control samples generates a standard curve that is used to quantitate the percent inhibition after antisense oligonucleotide treatment of test samples.
RT-PCR reagents are obtained from PE-Applied Biosystems, Foster City, Calif. RT-PCR reactions are carried out by adding 25 l PCR cocktail (1× TAQMAN7 buffer A, 5.5 mM MgCl2, 300 µM each of DATP, dCTP and dGTP, 600 µM of dUTP, 100 nM each of forward primer, reverse primer, and probe, 20 U RNAse inhibitor, 1.25 units AMPLITAQ GOLD7, and 12.5 U MuLV reverse transcriptase) to 96 well plates containing 25 l poly(A) mRNA solution. The RT reaction is carried out by incubation for 30 minutes at 48° C. following a 10 minute incubation at 95° C. to activate the AMPLITAQ GOLD7, 40 cycles of a two-step PCR protocol are carried out: 95° C. for 15 seconds (denaturation) followed by 60° C. for 1.5 minutes (annealing/extension).
The compounds were analyzed for their effect on STAT3 mRNA levels in A549 cells. The human lung carcinoma cell line A549 was obtained from the American Type Culture Collection (ATCC) (Manassas, Va.). A549 cells were routinely cultured in DMEM basal media (Invitrogen Corporation, Carlsbad, Calif.) supplemented with 10% fetal calf serum (Invitrogen Corporation, Carlsbad, Calif.), 100 units/mL penicillin, and 100 ug/mL streptomycin (Invitrogen Corporation, Carlsbad, Calif.). Cells were routinely passaged by trypsinization and dilution when they reached 90% confluence.
When cells reached 65-75% confluency, they were treated with oligonucleotide. For cells grown in 96-well plates, wells were washed once with […] OPTI-MEM-1 reduced-serum medium (Invitrogen Corporation, Carlsbad, Calif.) and then treated with 130 µL of OPTI-MEM-1 containing […] LIPOFECTIN (Invitrogen Corporation, Carlsbad, Calif.) and 75 nM of the compounds in Table 13. Cells were treated and data were obtained in duplicate. Untreated cells served as controls. After 4-7 hours of treatment at 37° C., the medium was replaced with fresh medium. Cells were harvested 16-24 hours after oligonucleotide treatment. STAT3 mRNA levels in A549 cells were quantitated by real-time PCR as described by other methods herein.
Probes and primers to human STAT3 were designed to hybridize to a human STAT3 sequence, using published sequence information (incorporated herein as SEQ ID NO: 1). For STAT 3 the PCR primers were: • forward primer: […]

Inhibited human STAT3 expression, at least 60%:
TGCAGGTCGTTGGTGTCACA (antisense eT*eG*e[5mC]*eA*eG*dG*dT*d[5mC]*dG*dT*dT*dG*dG*dT*dG*eT*e[5mC]*eA*e[5mC]*eA) [ISIS 337354], SEQ ID NO 182: Table 13 2′-MOE gapmer targeted to human STAT3 (antisense eG*eA*eT*eA*e[5mC]*d[5mC]*dT*dG*d[5mC]*dT*d[5mC]*dT*dG*dA*dA*eG*eA*eA*eA*e[5mC]), SEQ ID NO 257: Table 13 2′-MOE gapmer targeted to human STAT3 (antisense eT*eG*eA*eT*e[5mC]*dT*dT*dA*dT*dA*dG*d[5mC]*d[5mC]*d[5mC]*dA*eT*eG*eA*eT*eG), SEQ ID NO 262: Table 13 2′-MOE gapmer targeted to human STAT3 (antisense eT*e[5mC]*e[5mC]*eG*eA*dA*dT*dG*d[5mC]*d[5mC]*dT*d[5mC]*d[5mC]*dT*d[5mC]*e[5mC]*eT*eT*eG*eG), SEQ ID NO 216: Table 13 2′-MOE gapmer targeted to human STAT3 (antisense eT*eT*eG*eA*e[5mC]*d[5mC]*dA*dG*d[5mC]*dA*dA*d[5mC]*d[5mC]*dT*dG*eA*e[5mC]*eT*eT*eT), SEQ ID NO 217: Table 13 2′-MOE gapmer targeted to human STAT3 (antisense eA*eG*e[5mC]*eT*eG*dA*dT*dA*dA*dT*dT*d[5mC]*dA*dA*d[5mC]*eT*e[5mC]*eA*eG*eG), SEQ ID NO 234: Table 13 2′-MOE gapmer targeted to human STAT3 (antisense e[5mC]*eT*eG*eG*e[5mC]*dA*dA*dG*dG*dA*dG*dT*dG*dG*dG*eT*e[5mC]*eT*e[5mC]*eT), SEQ ID NO 283: Table 13 2′-MOE gapmer targeted to human STAT3 (antisense e[5mC]*eA*eG*eA*eT*d[5mC]*dA*d[5mC]*d[5mC]*d[5mC]*dA*d[5mC]*dA*dT*dT*e[5mC]*eA*e[5mC]*eT*e[5mC]), SEQ ID NO 271: Table 13 2′-MOE gapmer targeted to human STAT3 (antisense eG*eG*eT*e[5mC]*eA*dA*dT*dG*dG*dT*dA*dT*dT*dG*d[5mC]*eT*eG*e[5mC]*eA*eG), SEQ ID NO 266: Table 13 2′-MOE gapmer targeted to human STAT3 (antisense eA*eT*eA*eA*eA*d[5mC]*dT*dT*dG*dG*dT*d[5mC]*dT*dT*d[5mC]*eA*eG*eG*eT*eA), SEQ ID NO 248: Table 13 2′-MOE gapmer targeted to human STAT3 (antisense e[5mC]*e[5mC]*e[5mC]*eA*eG*dA*dA*dG*dG*dA*dG*dA*dA*dG*d[5mC]*e[5mC]*e[5mC]*eT*eT*eG), SEQ ID NO 202: Table 13 2′-MOE gapmer targeted to human STAT3 (antisense eT*eG*eG*eT*e[5mC]*dA*d[5mC]*dT*dG*dA*d[5mC]*dT*dG*dG*dT*eT*eG*eT*eT*eT), SEQ ID NO 174: Table 13 2′-MOE gapmer targeted to human STAT3 (antisense e[5mC]*e[5mC]*eA*eT*eT*dG*dG*dG*d[5mC]*d[5mC]*dA*dT*d[5mC]*d[5mC]*dT*eG*e[5mC]*eT*eA*eA), SEQ ID NO 253: Table 13 2′-MOE gapmer targeted to human STAT3 (antisense eA*eG*e[5mC]*eA*eA*dA*dT*dG*dA*d[5mC]*dA*dT*dG*dT*dT*eG*eT*eT*e[5mC]*eA), SEQ ID NO 279: Table 13 2′-MOE gapmer targeted to human STAT3 (antisense e[5mC]*eA*eG*eT*e[5mC]*dG*dT*dA*dT*d[5mC]*dT*dT*dT*d[5mC]*dT*eG*e[5mC]*eA*eG*e[5mC]), SEQ ID NO 193: Table 13 2′-MOE gapmer targeted to human STAT3 (antisense eG*eT*eT*eG*eA*dA*dA*dT*d[5mC]*dA*dA*dA*dG*dT*d[5mC]*eA*eT*e[5mC]*e[5mC]*eT), SEQ ID NO 232: Table 13 2′-MOE gapmer targeted to human STAT3 (antisense eG*eG*eT*e[5mC]*eT*d[5mC]*dT*dA*dG*dG*dT*d[5mC]*dA*dA*dT*e[5mC]*eT*eT*eG*eA), SEQ ID NO 183: Table 13 2′-MOE gapmer targeted to human STAT3 (antisense eT*eT*e[5mC]*eT*e[5mC]*dA*dA*dG*dA*dT*dA*d[5mC]*d[5mC]*dT*dG*e[5mC]*eT*e[5mC]*eT*eG), SEQ ID NO 241: Table 13 2′-MOE gapmer targeted to human STAT3 (antisense eT*e[5mC]*e[5mC]*e[5mC]*eA*dA*dG*dA*dG*dT*dT*dT*d[5mC]*dT*d[5mC]*eT*eG*e[5mC]*e[5mC]*eA), SEQ ID NO 209: Table 13 2′-MOE gapmer targeted to human STAT3 (antisense eT*eG*e[5mC]*e[5mC]*eG*d[5mC]*d[5mC]*dT*d[5mC]*dT*dT*d[5mC]*d[5mC]*dA*dG*eT*e[5mC]*eA*eG*e[5mC]), SEQ ID NO 236: Table 13 2′-MOE gapmer targeted to human STAT3 (antisense eT*e[5mC]*eT*eG*eA*d[5mC]*dA*dG*dA*dT*dG*dT*dT*dG*dG*eA*eG*eA*eT*e[5mC]), SEQ ID NO 250: Table 13 2′-MOE gapmer targeted to human STAT3 (antisense eT*e[5mC]*eT*eT*eT*dG*d[5mC]*dT*dG*d[5mC]*dT*dT*dT*d[5mC]*dA*e[5mC]*eT*eG*eA*eA), SEQ ID NO 238: Table 13 2′-MOE gapmer targeted to human STAT3 (antisense eG*e[5mC]*eA*eT*eT*dT*dG*dG*d[5mC]*dA*dT*d[5mC]*dT*dG*dA*e[5mC]*eA*eG*eA*eT), SEQ ID NO 251: Table 13 2′-MOE gapmer targeted to human STAT3 (antisense eA*eT*eG*eT*eT*dG*dT*dT*d[5mC]*dA*dG*d[5mC]*dT*dG*d[5mC]*eT*eG*e[5mC]*eT*eT), SEQ ID NO 186: Table 13 2′-MOE gapmer targeted to human STAT3 (antisense eA*eT*e[5mC]*eT*eG*d[5mC]*dT*dG*d[5mC]*dT*dT*d[5mC]*dT*d[5mC]*d[5mC]*eG*eT*e[5mC]*eA*e[5mC]), SEQ ID NO 288: Table 13 2′-MOE gapmer targeted to human STAT3 (eA*eG*eA*e[5mC]*eA*dT*dT*dT*d[5mC]*d[5mC]*dT*dT*dT*dT*dT*e[5mC]*eT*e[5mC]*e[5mC]*e[5mC]), SEQ ID NO 198: Table 13 2′-MOE gapmer targeted to human STAT3 (antisense e[5mC]*eT*e[5mC]*e[5mC]*eT*dT*dG*dA*d[5mC]*dT*d[5mC]*dT*dT*dG*dA*eG*eG*eG*eT*eT)
